Library screen at single concentrations

Measurements from “University of Dundee, Small-Polar-MMV Screening Library” (2021), ChEMBL document CHEMBL3988442.

Each number is a percent effect as filed. How 0% and 100% were set is not recorded. Most values in the screen are low, and negative values occur. Compounds were drawn at random from those tested, without regard to their results.

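Assay of Toxoplasma gondii numbers, read through their beta-galactosidase reporter with a colour substrate. Concentration: 50 µM. Higher reads as fewer parasites (inferred from which compounds were picked for retests). About 18,000 compounds were tested under these conditions; 0.94% (about 170) showed 50% or more at least once.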

* CC(C)C(=O)NC1CCN(C(C)C)CC1 | -23.46%
* OCc1ncn(-c2ccccc2)n1 | -10.61%
* CCC(N)C(=O)N1CCN(S(C)(=O)=O)CC1 (stereo not drawn) | -5.7%
* Cc1ccc(S(=O)(=O)NCCN)cc1Cl | 8.152%
* CC(NCCN1CCOCC1)C1CCOCC1 (stereo not drawn) | -6.732%
* COc1ccc(F)c(N2CCNCC2)c1 | 9.07%
* Cc1nnc(SCCCNC(=O)c2nn(C)cc2Cl)s1 | 6.143%
* CCc1cc(N2CCCC(N)C2)ncn1 (stereo not drawn) | 4.822%
* CCN1C[C@H](NC(=O)c2ccc(Cl)s2)[C@@H](OC)C1 | 2.981%
* CC(c1ccc(F)c(F)c1)N1CCN(CCO)C(=O)C1 (stereo not drawn) | 1.418%
* CC(=O)c1c[nH]c(C(=O)Nc2nnc(C)s2)c1 | 27.05%
* COc1ccc(-n2c(C)n[nH]c2=O)cc1Cl | -0.2057%
* c1ccc2c(c1)cnn2CC1CCCNC1 (stereo not drawn) | -0.56%
* CCc1noc(Cn2ccc3ncccc3c2=O)n1 | -0.3528%
* CC(C)(C)NC(=O)CNC(C(N)=O)c1ccccc1 (stereo not drawn) | -16.68%
* CCn1c(C(=O)N2CCC(O)CC2)cc2ccccc21 | 0.5945%
* O=C(NC1CC1)NC1CCNC1 (stereo not drawn) | 14.63%
* CC(Oc1ccccc1C#N)C(=O)N(C)C (stereo not drawn) | -2.173%
* NCc1ccc2c(c1)COC2 | 3.973%
* COCC(NC(=O)CC1=CCCCC1)C(N)=O (stereo not drawn) | -14.28%
* CCN(CC)c1nc2nc[nH]c(=O)c2s1 | -4.057%
* CCOC(=O)c1c(N)c(C#N)n2c1CCCCC2 | -43.89%
* COc1cccc(Cn2cc(F)ccc2=O)c1 | 14.29%
* CCNC(=O)C(C)(C)CNC(=O)Nc1cc(C)ccn1 | 15.16%
* CCC(C)(N)c1nc(COC)cc(=O)[nH]1 (stereo not drawn) | -14.6%
* CN1CCCC1CCSCC(=O)Nc1ccccn1 (stereo not drawn) | 5.261%
* CC1CN(C(=O)[C@@H](N)Cc2ccccc2)CC(C)(C)O1 (stereo partly drawn) | 4.593%
* O=C(NCc1[nH]ncc1Br)Nc1nc2c(s1)COCC2 | 4.679%
* COCCn1cnnc1C(C)NC(=O)c1nc(C)c[nH]1 (stereo not drawn) | -7.042%
* CCNC(=O)NC(C)c1ccc(-n2cncn2)cc1 (stereo not drawn) | 15.06%
* O=C(Nc1cccc(-n2cccn2)c1)N1CCSCC1 | -4.995%
* CC(C(=O)NCc1cccs1)S(=O)(=O)C1CCCC1 (stereo not drawn) | 4.192%
* CN(Cc1cccc(F)c1)C(=O)c1cnccn1 | -5.579%
* CN(Cc1ccc(Cl)o1)CC1COCCO1 (stereo not drawn) | -2.166%
* N[C@@H](Cc1ccccn1)c1ccccc1 | 7.739%
* CNC(=O)N1CCCCCC1c1ccncc1 (stereo not drawn) | 14.5%
* CCN(CCO)C(=O)c1ccn(-c2ccccc2F)n1 | 6.105%
* FC(F)OC1CCCNC1 (stereo not drawn) | 1.633%
* CCNCc1nccs1 | -0.8511%

The last 3 entries again:

* CCN(CCO)C(=O)c1ccn(-c2ccccc2F)n1 : 6.105%
* FC(F)OC1CCCNC1 (stereo not drawn) : 1.633%
* CCNCc1nccs1 : -0.8511%